In publication PMC9977016:
These are yes or no findings as the source states them, for the method shown. Binding seen in cells or lysates may run through a third protein. Some results given as binding are weak or reduced against the parent protein; the word gives no strength.

Sequences of proteins named here, by UniProt entry; tags and fusion partners are left off. Residues count along the entry.
UniProt P19525: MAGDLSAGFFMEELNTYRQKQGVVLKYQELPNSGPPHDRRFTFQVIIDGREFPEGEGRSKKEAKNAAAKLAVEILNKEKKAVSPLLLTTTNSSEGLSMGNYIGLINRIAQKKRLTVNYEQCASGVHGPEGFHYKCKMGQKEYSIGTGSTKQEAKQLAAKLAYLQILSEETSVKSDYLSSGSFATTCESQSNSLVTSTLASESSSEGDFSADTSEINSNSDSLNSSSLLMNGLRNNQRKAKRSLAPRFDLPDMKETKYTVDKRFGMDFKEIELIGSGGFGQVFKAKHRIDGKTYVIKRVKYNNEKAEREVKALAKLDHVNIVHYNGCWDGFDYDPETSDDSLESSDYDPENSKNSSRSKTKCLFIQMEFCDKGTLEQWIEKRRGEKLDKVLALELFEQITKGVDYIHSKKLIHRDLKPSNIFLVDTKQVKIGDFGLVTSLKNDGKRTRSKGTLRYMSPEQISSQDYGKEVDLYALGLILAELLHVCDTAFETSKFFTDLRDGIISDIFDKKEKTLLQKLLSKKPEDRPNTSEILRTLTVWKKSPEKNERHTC
UniProt Q99IB8, residues 1977-2442: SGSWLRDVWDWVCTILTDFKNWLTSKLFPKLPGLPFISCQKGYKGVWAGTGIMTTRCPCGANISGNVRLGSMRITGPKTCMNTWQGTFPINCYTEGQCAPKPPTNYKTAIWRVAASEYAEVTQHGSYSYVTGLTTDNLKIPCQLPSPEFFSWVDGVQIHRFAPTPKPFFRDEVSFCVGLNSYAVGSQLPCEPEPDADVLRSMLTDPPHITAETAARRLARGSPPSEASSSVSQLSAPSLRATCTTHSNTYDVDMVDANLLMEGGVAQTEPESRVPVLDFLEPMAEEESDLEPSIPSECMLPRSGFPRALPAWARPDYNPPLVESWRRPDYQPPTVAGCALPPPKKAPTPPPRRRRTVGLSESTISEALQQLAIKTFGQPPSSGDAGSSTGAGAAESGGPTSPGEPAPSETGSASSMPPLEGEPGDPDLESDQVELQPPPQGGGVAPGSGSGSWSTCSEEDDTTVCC

Target: interferon-induced double-stranded RNA-dependent protein kinase (PKR), endogenous in Huh7.5 cells (human (endogenous in Huh7.5)) (UniProt P19525)
Assay: co-IP; lysates of Huh7.5 cells electroporated with mJFH-1 RNAs, 72 hpe; IP buffer 25 mM Tris-HCl pH 7.4, 150 mM NaCl, 1% NP-40, 1 mM EDTA, 5% glycerol; anti-PKR antibody overnight at 4°C, protein G beads; western blot for NS5A

With “NS5A, wildtype, hepatitis C virus genotype 2a (JFH-1) (from UniProt Q99IB8 1977-2442)” the binding was “binds weakly”.
